{
  "source": "patent US20200046720A1",
  "about": "“ENGINEERED BIOCOMPATIBLE ANTIBIOTIC PARTICLES AND THEIR USE AGAINST URINARY TRACT INFECTION” (The University of North Carolina at Chapel Hill, priority 2016, published 2020)",
  "key": {"[1]": {"test_system": "E. coli UT189", "assay": "Disk diffusion assay, zones of clearing", "assay_type": "cell-based, Escherichia coli", "conditions": "disks spotted with 5 μg/ml solution (0.05 μg levofloxacin per disk), 3 independent trials"}, "[2]": {"test_system": "E. coli UT189", "assay": "Tissue culture-based microbial inhibition assay, intracellular E. coli infection of bladder epithelial cells", "assay_type": "cell-based, Escherichia coli", "conditions": "5 μg/ml, 1 hour pretreatment, washed, infected immediately", "experimental": "FIGS. 3A-D show PRINT-Levofloxacin provides prolonged protection against intracellular E. coli infection. UROTSA bladder epithelial cell monolayers were incubated with media, free levofloxacin (FREE LEVO), blank PRINT particles (BLANK PRINT), or a formulation of PRINT encapsulated levofloxacin (PRINT-LEVO) for 1 hour. Each treatment was removed, the cells were washed, and the cells were immediately infected with E. coli UT189 (FIG. 3A), 8 hours later (FIG. 3B), or 18 hours later (FIG. 3C). After 1 hour of infection with E. coli, the medium was replaced with medium containing gentamicin to eliminate extracellular bacteria. Viable bacteria in the bladder epithelial cells were enumerated 24 hours later. The formulations and associated sizes and charges are shown for reference (FIG. 3D). Tissue culture-based microbial inhibition assays-Bladder epithelial cell lines 5637 and UROTSA have been previously described. Tissue culture cells were growth in RPMI 1640 media to 80% confluence and lifted using trypsin-EDTA (Sigma-Aldrich). Twenty four well plates (Genesee Scientific) were seeded with 5637 cells and grown for 2 days at 37° C., 5% CO2 prior to infections. Where appropriate to the assay conditions, unencapsulated (“free”) levofloxacin was added to the wells one hour prior to infection and at the same concentration as wells treated with PRINT-levofloxacin particles. […]"}, "[3]": {"test_system": "E. coli UT189", "assay": "Rat spinal cord injury UTI infection model", "assay_type": "in vivo, Escherichia coli", "conditions": "female SCI rats, single intracystic dose, drained after 1 hour, infected 4 hours later", "experimental": "FIGS. 6A-C show PRINT-LEVO provides sustained protection against E. coli UTI in the SCI rat. Female SCI rats were treated by transurethral catheterization and instillation of a volume equivalent to their previously determined residual urine volume containing PBS, PBS with free levofloxacin (5 μg/ml), PRINT-LEVO (formula D5), or BLANK PRINT particles (wt/vol equivalent to PRINT-LEVO). After 1 hour of treatment, all animals had their bladder creded to remove each treatment. The animals were infected with E. coli at increasing time intervals following the administration and drainage of the test or control agents from the bladder: 4 hours (FIG. 6A), 8 hours (FIG. 6B), or 18 hours (FIG. 6C). Bacteria were counted in the bladders and kidneys 24 hours after infection with E. coli by tissue homogenization and plating of dilutions on solid agar medium. Horizontal bars indicate the geometric means.\nAs described previously, female Sprague-Dawley rats (Harlan; 175-200 gm) underwent controlled surgical T10 spinal cord transection to model spinal cord injury and produce a neurogenic bladder phenotype. […] Due to the spinal cord injury and subsequent neurogenic bladder phenotypes, animals were routinely monitored and creded to relieve urinary retention each 12 hours. […]"}},
  "note": "For at least one compound, name, drawing or mass did not settle the structure.",
  "data": [
    {"smiles": "C[C@H]1COc2c(N3CCN(C)CC3)c(F)cc3c(=O)c(C(=O)O)cn1c23", "note": "[free levofloxacin, levofloxacin]", "values": [
      {"measurement": "zone of clearing", "setting": "[1]", "value": "large zone of clearing"},
      {"measurement": "protection against E. coli intracellular infection of bladder epithelial cells", "setting": "[2]", "value": "limited efficacy"},
      {"measurement": "protection against infection, 4 hour delay", "setting": "[3]", "value": "Neither BLANK PRINT particles nor free levofloxacin provided significant protection against infection"},
      {"measurement": "protection against infection, 4 hour delay", "setting": "[3]; listed as unencapsulated levofloxacin", "value": "no prophylaxis"}
    ]}
  ]
}
